# Assay results published in publication PMC8750385.
# No constants are given. Whether binding was seen depends on the method and setting. In cells and extracts the contact can be indirect. Binding calls can cover weak binding; strength is not graded here.
# Target: T1, long chain acyl-CoA dehydrogenase (mouse (endogenous in CGR8-NS neural stem cells)) (UniProt P51174)
# T1 sequence: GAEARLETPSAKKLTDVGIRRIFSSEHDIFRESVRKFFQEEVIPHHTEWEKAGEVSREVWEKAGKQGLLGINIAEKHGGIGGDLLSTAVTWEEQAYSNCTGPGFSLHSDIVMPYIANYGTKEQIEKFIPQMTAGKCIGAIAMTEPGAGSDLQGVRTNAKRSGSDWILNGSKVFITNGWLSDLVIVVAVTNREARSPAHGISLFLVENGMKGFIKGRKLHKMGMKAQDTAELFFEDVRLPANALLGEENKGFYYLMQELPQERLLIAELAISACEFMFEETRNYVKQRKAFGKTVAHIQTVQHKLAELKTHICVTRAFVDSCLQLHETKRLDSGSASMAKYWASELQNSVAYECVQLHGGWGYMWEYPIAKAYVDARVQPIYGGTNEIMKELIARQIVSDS
# Experiment: co-IP; 500 ug whole cell extract of mouse NSCs (lysis buffer 50 mM Tris-HCl pH 7.4, 180 mM NaCl, 1 mM EDTA, 0.5% Triton X-100) incubated overnight at 4 °C with 1 ug rabbit polyclonal antibody to LCAD and Protein G affinity gel; blot probed for LCAD, then SIRT3; IgG immunoprecipitation as control; cells untreated or treated with 50 uM tBHP (2 h/day, 4 days), with control or SIRT3 overexpression plasmid
substance,measurement,value
Sirtuin 3 (enzyme),binding,binds
